No constants are given. Whether binding was seen depends on the method and setting. Some results given as binding are weak or reduced against the parent protein; the word gives no strength.
Tests used:
[1] = target: T1, LexA_(DBDwt)-InvF (Salmonella Typhimurium) (UniProt P69343); assay: two-hybrid; LexA-based bacterial two-hybrid, heterodimer system in E. coli SU202 (LexA_(DBDwt) fusion from pSR658 with LexA_(DBDmut) fusion from pSR659; interaction lowers β-galactosidase activity)
T1 sequence: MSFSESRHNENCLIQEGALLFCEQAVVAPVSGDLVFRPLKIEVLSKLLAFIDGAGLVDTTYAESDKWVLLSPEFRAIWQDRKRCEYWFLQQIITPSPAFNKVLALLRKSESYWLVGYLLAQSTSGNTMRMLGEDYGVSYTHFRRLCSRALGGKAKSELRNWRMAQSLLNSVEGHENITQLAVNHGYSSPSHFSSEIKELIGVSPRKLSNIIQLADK

Protein sequences, listed by entry. Tags and fused reporters are not part of them.
UniProt P69066: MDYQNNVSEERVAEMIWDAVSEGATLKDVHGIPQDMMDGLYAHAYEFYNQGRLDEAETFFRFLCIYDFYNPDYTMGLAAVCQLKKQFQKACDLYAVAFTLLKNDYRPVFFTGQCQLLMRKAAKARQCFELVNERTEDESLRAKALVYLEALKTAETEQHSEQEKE

[2] = target: LexA_(DBDwt)-SicA (Salmonella Typhimurium) (UniProt P69066); assay: as above
[3] = target: LexA_(DBDwt)-SicA (Salmonella Typhimurium) (UniProt P69066); assay: two-hybrid

Row | Substance | binding [1] | binding [2] | binding [3]
1 | LexA_(DBDmut)-SicA (from UniProt P69066 1-165) | binds | binds | 
2 | LexA_(DBDwt)-SicA (from UniProt P69066 1-165) |  |  | binds

Source: paper PMC7595419
